Some of the results follow. Further columns of the screen follow, without active or inactive calls. Compounds called inactive in the main read-out are mostly missing here.
Test: hepatocyte lipid droplet accumulation inhibitors, confirmation, imaging, AML12 mouse hepatocytes, single concentration, high-content (AID 463183);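 note: cells counted after overnight compound exposure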
Conditions: BODIPY lipid droplet imaging, measured here: cell count, cytotoxicity, at 5.2 µM, droplets induced with 100 µM oleic acid

| SMILES | cell count |
| --- | --- |
| CCN1CCN(Cc2ccc(NC(=O)c3ccc(C)c(NC(=O)C(=O)c4c[nH]c5ccccc45)c3)cc2C(F)(F)F)CC1 | 1390 cells |
| CC1=C(C(=O)OCC2CCCO2)C(c2ccc(Cl)c(Cl)c2)NC(=O)N1 (centres undefined) | 1580 cells |
| Cc1nn(-c2ccc([N+](=O)[O-])cc2)c2c1C(c1cccc(Br)c1)N1C(=N2)C(=O)Nc2ccccc21 (centres undefined) | 1540 cells |
| COc1ccc(C(C)=O)cc1CSc1nnc(Nc2ccc(C)cc2C)s1 | 1580 cells |
| CCOC(=O)C(NC(=O)c1ccccc1)(OCc1ccccc1)C(F)(F)F (centres undefined) | 1580 cells |
| COc1ccc(C(=O)CCC(=O)NCCc2c[nH]c3ccccc23)cc1OC | 1540 cells |
| CCOc1ccc(CCNC(=O)COC(=O)c2cc([N+](=O)[O-])ccc2N2CCOCC2)cc1OCC | 1600 cells |
| CC(C)C(C)NC(=O)CSc1nc2scc(-c3ccco3)c2c(=O)n1-c1ccccc1 (centres undefined) | 1590 cells |
| CCOc1ccc(CCNC(=O)Cn2ncn3nc(-c4ccc(OC)cc4)cc3c2=O)cc1OCC | 1530 cells |
| C=C(C)Cn1c(N2CCC(Cc3ccccc3)CC2)nc2c1c(=O)[nH]c(=O)n2C | 1640 cells |
| Cc1ccc(S(=O)(=O)N(C)C)cc1NC(=S)Nc1ccc2cn[nH]c2c1 | 1660 cells |
| C/C(=N\Nc1ccc(S(=O)(=O)Nc2ccccc2)cc1[N+](=O)[O-])c1ccc(N2CCOCC2)cc1 | 1690 cells |
| C=CCN(C(=O)c1csnn1)C(C(=O)NC1CCCCC1)c1ccccc1F (centres undefined) | 1600 cells |
| COc1ccc(N=C2C(=Nc3ccc(OC)cc3)N(c3ccc(N(C)C)cc3)C(=S)N2c2ccc(OC)cc2)cc1 | 1680 cells |
| CC(C)C(C)(C#N)NC(=O)CSc1nc2scc(-c3ccc(F)cc3)c2c(=O)n1Cc1ccccc1 (centres undefined) | 1620 cells |
| Cc1cc(C)n(-c2nc3c(c(=O)[nH]c(=O)n3C)n2CC(O)COc2ccc(Cl)cc2Cl)n1 (centres undefined) | 1590 cells |
| O=C(Nc1cccc(S(=O)(=O)N2CCOCC2)c1)c1ccc(Cl)c([N+](=O)[O-])c1 | 1610 cells |
| CCOc1ccc(-n2c(SCC(=O)Nc3ccc(CC)cc3)nc3n[nH]c(C)c3c2=N)cc1 | 1640 cells |
| COCCn1cnc2c(c1=O)c1nc3ccccc3nc1n2/N=C/c1ccc(OC)c(OC)c1 | 1540 cells |
| CCOc1ccc(NC(=O)CCSc2nc3c(c(CC)c2C#N)C(=O)CC(C)(C)C3)cc1 | 1530 cells |

2 of these compounds in a different format:
SMILES | cell count
CCOc1ccc(CCNC(=O)Cn2ncn3nc(-c4ccc(OC)cc4)cc3c2=O)cc1OCC | 1530 cells
C=C(C)Cn1c(N2CCC(Cc3ccccc3)CC2)nc2c1c(=O)[nH]c(=O)n2C | 1640 cells

Remaining list, next part:

| SMILES | cell count |
| --- | --- |
| COc1cccc(N2CCN(CC(=O)Nc3nnc(-c4ccccc4)s3)CC2)c1 | 1560 cells |
| COc1cc2c3nnc(-c4ccc(F)cc4)c-3cn(Cc3cccc(C)c3)c2cc1OC | 1660 cells |
| CCOc1cc2c(cc1OCC)C(c1ccccc1OC)OC(=O)C2 (centres undefined) | 1600 cells |
| CC(C)C[C@H]1C(=O)N2CCC[C@H]2[C@]2(O)O[C@](NC(=O)[C@@H]3C=C4c5cccc6[nH]c(Br)c(c56)CC4N(C)C3)(C(C)C)C(=O)N12 (some centres undefined) | 1530 cells |
| CCOC(=O)C1CCN(C(=O)C2(NC(=O)Nc3ccc(F)cc3F)CCCCC2)CC1 | 1680 cells |
| CCOc1ccc(-c2nonc2NC(=O)c2ccco2)cc1 | 1670 cells |
| CCCC(=O)Nc1cccc(C(=O)Nc2ccccc2OCC)c1 | 1650 cells |
| CCOC(=O)c1c(C)[nH]c(N=Nc2ccccc2C)c1C | 1650 cells |
| COc1cc(C2N3CC4(C)CN2CC(C)(C3)C4)ccc1O (centres undefined) | 1690 cells |
| COc1cc2ncnc(NCc3ccccc3Cl)c2cc1OC | 862 cells |
| O=C(Cc1cccc2ccccc12)Nc1ccc(-c2cc3ccccc3oc2=O)cc1 | 1600 cells |
| O=C(CNCCC1=CCCCC1)Nc1ccccc1N1CCCCC1 | 1620 cells |
| c1ccc(NCc2ccncc2)cc1 | 1560 cells |
| COc1ccc(CCNC(=O)CCOc2cc(C)ccc2C)cc1OC | 1570 cells |
| COc1ccc(CCNC(=O)Cc2cccc(C(F)(F)F)c2)cc1OC | 1710 cells |
| c1ccc(Oc2cccc(CN3CCCCC3)c2)cc1 | 1570 cells |
| OCCCNc1cc(-c2ccnc(Nc3cccc(Cl)c3)n2)ccn1 | 598 cells |
| O=C(Nc1ccc(Br)cc1)c1cccc(OC(=S)N2CCOCC2)c1 | 1570 cells |
| COc1cccc(CNC(=O)CCCc2c[nH]c3ccccc23)c1 | 1600 cells |

Source: PubChem BioAssay AID463183 (Sanford-Burnham Center for Chemical Genomics, 2010)
